No constants are given. Whether binding was seen depends on the method and setting. Some results given as binding are weak or reduced against the parent protein; the word gives no strength. Sequences can lack the tags named with a protein.

Sequences of proteins named here, by UniProt entry; tags and fusion partners are left off. Residues count along the entry.
UniProt Q95LI5, residues 22-198: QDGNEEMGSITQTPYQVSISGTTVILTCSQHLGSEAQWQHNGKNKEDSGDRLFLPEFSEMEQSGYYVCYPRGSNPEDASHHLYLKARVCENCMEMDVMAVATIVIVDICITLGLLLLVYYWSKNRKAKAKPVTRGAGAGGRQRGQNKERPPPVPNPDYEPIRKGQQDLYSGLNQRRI

For one molecule, binding results are on record in patent US20190071513A1 (APTEVO RESEARCH AND DEVELOPMENT, published 2019).

For the assay, the target named is cynomolgus CD3ε on cynomolgus T-cells (cynomolgus monkey) (UniProt Q95LI5). Description: flow cytometry on Chinese cynomolgus macaque T-cells.

B1: anti-CD3 scFv-Fc (the anti-CD3 binding domain in a mono-specific scFv-Fc fusion format) (Fc fusion, not shown: a dimerising Fc or GST)
chain: QVQLVQSGPEVKKPGSSVKVSCKASGYTFSRSTMHWVRQAPGQGLEWIGYINPSSAYTNYNQKFKDRVTITADKSTSTAYMELSSLRSEDTAVYYCARPQVHYDYNGFPYWGQGTLVTVSSGGGGSGGGGSGGGGSGGGGSDIQMTQSPSTLSASVGDRVTMTCSASSSVSYMNWYQQKPGKAPKRWIYDSSKLASGVPSRFSGSGSGTDYTLTISSLQPDDFATYYCQQWSRNPPTFGGGTKVEIKRSSS
Regarding B1, the binding result was “binds”.
